The campaign covered roughly 410,000 compounds. About 18,000 (4.4%) were called active. This list was built around the results that the source calls inconclusive (neither active nor inactive); the mix of calls is not that of the screen. Rule as the data show it: active = activity change below about -60%; inconclusive = no clear call, values can overlap the other calls; inactive = above about -39%.
experiment: qHTS Assay for inhibitors of the human cytomegalovirus (HCMV); conditions: HFF cells, HCMV-luciferase reporter, 72 h; at 57.5 µM; hits give low values
Outline: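 Human foreskin fibroblasts infected with luciferase-reporter HCMV at MOI 1 PFU/cell, compounds at two doses. Luciferase measured 72 h post infection; normalized to buffer-only basal and Salinomycin (10uM) controls.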
% is scaled to controls: 0 for no effect and ±100 for the full control effect.

| SMILES | activity change, negative = inhibition |
| --- | --- |
| COc1ccc(C(=O)Nc2ccc3c(c2)CCCN3S(=O)(=O)c2ccc(C)cc2)c(OC)c1 | inactive: -10.9% |
| N#Cc1ccccc1CSC1=NCCS1 | inconclusive: -49.6% |
| Cc1cccc2cc(CN(CC3CCCO3)C(=O)NC3CCCCC3)c(=O)[nH]c12 (stereo not given) | inactive: 1.41% |
| S=c1[nH]nc(-c2cc(-c3ccccc3)n[nH]2)n1/N=C/C(Br)=C/c1ccccc1 | active: -100% |
| CC1(Cc2ccc(Cl)cc2)C(=O)Nc2ccc(-c3cccnc3)cc21 (stereo not given) | active: -66.3% |
| CN(C)CCNc1nc2sc3c(c2c(=O)n1-c1ccc(F)cc1)CCCCC3 | inactive: 45.4% |
| CCN(CC)c1nc(C)c(C(=S)Nc2cc([N+](=O)[O-])ccc2Cl)s1 | inconclusive: -51.2% |
| CC1=C(C(N)=O)C(c2ccc(Cl)cc2)n2nc(CCCO)nc2N1 (stereo not given) | inconclusive: -44.7% |
| COc1ccc2c(c1)Sc1ccccc1N2 | active: -80.7% |
| COc1ccc(NC(=O)Nc2ccc3c(c2)CCC3)cc1OC | inactive: -33.9% |
| Cc1cc(C)cc(OCc2cc(=O)n3c(-c4ccccc4)csc3n2)c1 | inactive: 6.68% |
| Cc1cccc(CNC(=O)c2ccc3c(c2)c(C)c(C)n3Cc2ccccc2)c1 | inconclusive: 0% |
| CC1CN(C(=O)c2ccccc2Oc2ccccc2)CC(C)O1 (stereo not given) | inconclusive: -47.7% |
| CCOc1ccc(CCNC(=O)c2ccc(CNS(=O)(=O)c3ccccc3)cc2)cc1OCC | active: -71.6% |
| CCCC(C(=O)Nc1ccc(S(=O)(=O)Nc2ncccn2)cc1)c1ccccc1 (stereo not given) | inactive: 29% |
| Cc1ccc(-c2noc(CCCC(=O)Nc3cccnc3)n2)cc1 | active: -63.1% |
| COc1cccc(/C=N/NC(N)=S)c1OCc1cccc(Cl)c1 | inconclusive: -52.7% |
| CCOCc1cc(CN2CCN(c3ccccc3OC)CC2)c(O)c2ncccc12 | active: -98.5% |
| C/C(N)=C(/C#N)C(=O)CSc1nnc(Nc2ccccc2C)s1 | inactive: 84.9% |
| COc1ccc(C(=O)Nc2ccc(Cl)cc2C(=O)N2CCOCC2)cc1 | inactive: 51.4% |
| Cc1ccccc1Nc1nn2c(=O)c3ccc(C(=O)NCc4ccccc4)cc3nc2s1 | inconclusive: -59.7% |
| Cc1nn(C)cc1C(C)NCc1c(C(=O)N2CCCCCCC2)nc2ccc(Cl)cn12 (stereo not given) | inconclusive: -51.9% |
| CC(NC(=S)Nc1ccccc1OC(F)F)C(C)(C)C (stereo not given) | active: -65.2% |
| Cc1ccc(C)c(OCC(=O)N/N=C/c2c(C)nn(-c3ccccc3)c2Cl)c1 | inactive: 17.7% |
| CC(CC(=O)O)CC(=O)Nc1ccc(S(N)(=O)=O)cc1 (stereo not given) | inconclusive: -42.5% |
| CSC1=NC(C)(C)C=C(/C=C/c2ccc(Cl)cc2)N1 | active: -73.6% |
| COc1ccc(NC(=O)c2cc(C)nc3c2c(C)nn3-c2ccc(C)cc2)cc1OC | inactive: 5.14% |
| Cc1ccc(-n2nc(C)c3c(C)c(CCC(=O)NCC4CCCO4)c(=O)n(C)c32)cc1 (stereo not given) | inactive: 22.8% |

| SMILES | activity change, negative = inhibition |
| --- | --- |
| N#C/C(=C/c1ccncc1)c1nc2ccccc2c(=O)[nH]1 | inconclusive: 0% |
| COc1ccccc1-c1nnc(C2CCN(C(=O)c3cccc(C)c3)CC2)o1 | active: -64.6% |
| Cc1ccc(-c2onc(C)c2C)cc1S(=O)(=O)NCc1ccc(N(C)C)cc1 | inconclusive: -43% |
| CCOC(=O)N1CCN(C(=O)C2CCN(c3ncnc4c3sc3cccc(F)c34)CC2)CC1 | inconclusive: -56.2% |
| C=CCn1c(CCSCc2ccc(OC)c(C)c2)n[nH]c1=S | inconclusive: -47.8% |
| COc1ccc(NC(=O)CSc2nc3ccccc3nc2N2CCCC2)c(OC)c1 | inactive: -28.4% |
| CC1=C(C(N)=O)C(c2ccc(F)cc2)n2nc(CCCO)nc2N1 (stereo not given) | inconclusive: -45.4% |
| C/C(=N\NC(=O)c1nn(C)c(C)c1Br)c1ccc(NC(=O)c2ccoc2C)cc1 | inconclusive: -55.2% |
| CCc1nnc(NS(=O)(=O)c2ccc(NC(=S)NC(=O)c3ccncc3)cc2)s1 | inconclusive: 0% |
| COc1ccc(Cl)cc1C(=O)NCc1ccco1 | inconclusive: -58% |
| CCOC(=O)/C=C/[C@H]1CC(c2ccccc2)(c2ccccc2)CO1 | inconclusive: -52.2% |
| COc1ccc(S(=O)(=O)N2CCC(NC(=O)C(Cc3cccc(OC)c3OC)NC(C)=O)CC2)cc1 (stereo not given) | inconclusive: -52.9% |
| CCCNC(=O)c1ccc(N2CCC3(CC2)CC(c2ccc(Cl)cc2)=NO3)c([N+](=O)[O-])c1 | active: -72.5% |
| CC1(C)Cc2ccccc2C(c2cc3ccccc3oc2=O)=N1 | active: -70.2% |
| Fc1ccccc1N1CC(c2ccccc2)C(c2cccs2)=N1 (stereo not given) | inconclusive: -45.2% |
| COc1ccccc1NC(=O)CSC1=Nc2ccccc2C2=NC(Cc3ccccc3)C(=O)N12 (stereo not given) | inconclusive: -41.8% |
| Cc1cc(C)c(NC(=O)C2CCCN(S(=O)(=O)c3c(C)noc3/C=C/N(C)C)C2)c(C)c1 (stereo not given) | inactive: -6.88% |
| O=C(Nc1cccc(S(=O)(=O)Nc2ccc(Cl)cc2)c1)c1ccc2c(c1)OCCO2 | active: -94.5% |
| CCOc1ccc(CNC(=O)C2CCN(c3nnc(-n4c(C)ccc4C)s3)CC2)cc1 | inconclusive: -57% |
| Cc1ccc(S(=O)(=O)N2CCN(C(=O)N(c3ccccc3)c3ccccc3)CC2)cc1 | inconclusive: -42.6% |
| O=C(c1ccc2nc(N3CCCCC3)sc2c1)N1CCN(Cc2ccc3c(c2)OCO3)CC1 | inconclusive: -50% |
| COCc1cc(C)nc2c1C(=O)NC(c1ccc(C)cc1)N2Cc1ccccc1 (stereo not given) | inactive: -2.22% |
| CC1(C)CC2CC(C)(CN2C(=O)NC(=O)c2ccccc2)C1 (stereo not given) | inconclusive: -42.1% |
| C/C(N)=C(/C#N)C(=O)COC(=O)C(NS(=O)(=O)c1ccc(Cl)cc1)C(C)O (stereo not given) | inconclusive: -49.9% |
| CCOC(=O)c1ccc(NC(=O)c2ccc(CN3CCOCC3)cc2)cc1 | inconclusive: -57.7% |
| CCN(CC)CCNC(=O)C(=O)NCC(c1ccc2c(c1)OCO2)N1CCOCC1 (stereo not given) | inconclusive: -57.7% |
| CC(=O)C1=C(O)C(=O)N(c2ccc(Br)cn2)C1c1ccccc1F (stereo not given) | inconclusive: -42.9% |

Gathered by group, the compounds so far containing an aryl thioether with sulfur outside any ring.

| SMILES | activity change, negative = inhibition |
| --- | --- |
| C/C(N)=C(/C#N)C(=O)CSc1nnc(Nc2ccccc2C)s1 | inactive: 84.9% |
| COc1ccc(NC(=O)CSc2nc3ccccc3nc2N2CCCC2)c(OC)c1 | inactive: -28.4% |

— PubChem BioAssay AID1259415 (National Center for Advancing Translational Sciences (NCATS), 2018)
